Measured data: PubChem BioAssay AID504793 (Drosophila RNAi Screening Center, 2011)
Test: 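Knock-downs allowing continued mitosis even though DNA is damaged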 (primary screen). System: Drosophila S2R+ cells. Knock-down reagent: long dsRNA against Drosophila genes, about 0.25 µg dsRNA per well. Duration: 4 days of dsRNA, then 4 hours of drug before read-out. Challenge: doxorubicin 0.5 µM for 4 hours to cause double-strand breaks, in cells also given a low, harmless dose of dsRNA against nbs to sensitise the assay. Read-out: 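Per-well count of mitotic cells stained for phospho-histone H3 after doxorubicin exposure, used as mitotic index; counts are raw and not normalised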. Direction: mitotic cells: higher = more cells in mitosis, weaker G2 arrest. Active means: 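Genes are called active only when high mitotic counts were reproduced with independent dsRNAs and mitosis was checked for delay without damage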. Meaning of the calls: active = confirmed in follow-up tests; inactive = not confirmed.
The deposit covers about 23,000 reagents; shown is an unselected part of those that have a named target and a result. Of all reagents, 62 (0.27%) got an active call. 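Calls come from follow-up tests whose scores are not deposited, so confirmed genes may have low counts here; counts are not normalised per plate.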 The raw values are shown without normalisation. Reagents against one gene are numbered here.

For TER94 #1, what was measured?
mitotic cells, replicate 1: 14; outcome: inactive

What is on record for TER94 #2?
mitotic cells, replicate 1: 28; outcome: inactive

Which result is listed for CrebA?
mitotic cells, replicate 1: 4; outcome: inactive

How did the screen score CG18563?
mitotic cells, replicate 1: 5; outcome: inactive

For mrn, how do the results read?
mitotic cells, replicate 1: 7; outcome: inactive

For CG15599, what was measured?
mitotic cells, replicate 1: 6; outcome: inactive

How did the screen score CG14613 #1?
mitotic cells, replicate 1: 3; outcome: inactive

Which result is listed for CG14613 #2?
mitotic cells, replicate 1: 3; outcome: inactive

For Cap-D2 #1, how do the results read?
mitotic cells, replicate 1: 12; outcome: inactive

For Cap-D2 #2, how do the results read?
mitotic cells, replicate 1: 20; outcome: inactive

With CG6048 #1, how do the results read?
mitotic cells, replicate 1: 11; outcome: inactive

For CG6048 #2, what was measured?
mitotic cells, replicate 1: 4; outcome: inactive

With CG13280, how do the results read?
mitotic cells, replicate 1: 3; outcome: inactive

How did the screen score DCX-EMAP #1?
mitotic cells, replicate 1: 8; outcome: inactive

With DCX-EMAP #2, what was measured?
mitotic cells, replicate 1: 3; outcome: inactive

Which result is listed for DCX-EMAP #3?
mitotic cells, replicate 1: 5; outcome: inactive

How did the screen score puml?
mitotic cells, replicate 1: 6; outcome: inactive

What did the screen give for RabX6?
mitotic cells, replicate 1: 4; outcome: inactive

Which result is listed for CG17528?
mitotic cells, replicate 1: 13; outcome: inactive

With rudhira #1, what was measured?
mitotic cells, replicate 1: 13; outcome: inactive

What did the screen give for rudhira #2?
mitotic cells, replicate 1: 5; outcome: inactive

With rudhira #3, what does the deposit list?
mitotic cells, replicate 1: 7; outcome: inactive

With CG14342 #1, how do the results read?
mitotic cells, replicate 1: 4; outcome: inactive

For CG14342 #2, what does the deposit list?
mitotic cells, replicate 1: 7; outcome: inactive
